PubChem BioAssay AID1224828, NIAID, 2016

Purpose: 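Knock-downs that increase or decrease LPS-induced p65 nuclear translocation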 (primary screen)
System: mouse RAW264.7 G9 macrophage reporter cells (GFP-p65, Tnf promoter-mCherry)
Reagent: siRNA pool against mouse genes, 100 nM
Time to read-out: 2 days siRNA transfection, then 40 min LPS before fixation
Conditions: LPS (Salmonella minnesota R595) at 10 ng/ml
Detection: 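Microscopy ratio of nuclear to perinuclear-ring GFP-p65 signal, scaled to the plate median; gene score is the average of two replicate robust z-scores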
Direction: p65 translocation robust z-score: higher = more nuclear NF-kappaB p65 after LPS than the plate median; nuclear/cytoplasmic p65 ratio: higher = more nuclear NF-kappaB p65
Call rule: 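Active if robust z is above 3.3 (negative regulators) or below -1.56, the Tlr4 control median (positive regulators); activity score 50 or more; control wells not called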
Calls: active = hit (p65 shift raised or lowered); inactive = no clear change
The whole screen tested about 17,000 reagents; this is a part drawn at random. 762 of all reagents (4.5%) count as active. 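Active calls include both raised and lowered p65 entry, mostly lowered; wells with fewer than 50 cells lack a z-score.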 The raw values are shown without normalisation. A number with no mark means an inactive call. Reagent sequences are not shown.

| gene | p65 translocation robust z-score | nuclear/cytoplasmic p65 ratio, rep 1 | nuclear/cytoplasmic p65 ratio, rep 2 | low cell count flag |
| --- | --- | --- | --- | --- |
| Cnpy4 | – | 1.56 | 1.22 | fewer than 50 cells per well; well left out of scoring |
| Krt19 | -0.77 | 1.38 | 1.27 | enough cells to score |
| Rapgef5 | 0.26 | 1.58 | 1.53 | enough cells to score |
| Lrrc3b | -0.74 | 1.53 | 1.65 | enough cells to score |
| Tmem218 | – | 1.23 | 1.5 | fewer than 50 cells per well; well left out of scoring |
| Or8g36 | 1.38 | 1.61 | 1.41 | enough cells to score |
| Vmn1r73 | – | 1.08 | 1.14 | fewer than 50 cells per well; well left out of scoring |
| Cxcr6 | -2.38 (active) | 1.14 | 1.27 | enough cells to score |

Records listed so far whose gene name begins with C or c:
| gene | p65 translocation robust z-score | nuclear/cytoplasmic p65 ratio, rep 1 | nuclear/cytoplasmic p65 ratio, rep 2 | low cell count flag |
| --- | --- | --- | --- | --- |
| Cnpy4 | – | 1.56 | 1.22 | fewer than 50 cells per well; well left out of scoring |
| Cxcr6 | -2.38 (active) | 1.14 | 1.27 | enough cells to score |

More reagents:
| gene | p65 translocation robust z-score | nuclear/cytoplasmic p65 ratio, rep 1 | nuclear/cytoplasmic p65 ratio, rep 2 | low cell count flag |
| --- | --- | --- | --- | --- |
| Or2t45 | -1.68 (active) | 1.36 | 1.21 | enough cells to score |
| Or10a3m | 0.8 | 1.55 | 1.36 | enough cells to score |
| Hcn3 | 0.32 | 1.46 | 1.44 | enough cells to score |
| Sh2d1a | -1.52 | 1.33 | 1.34 | enough cells to score |
| Tmem130 | -1.73 (active) | 1.15 | 1.33 | enough cells to score |
| Slc22a1 | – | 1.33 | 1.13 | fewer than 50 cells per well; well left out of scoring |
| Spata16 | – | 1.19 | 1.05 | fewer than 50 cells per well; well left out of scoring |
| Gm57858 | -0.1 | 1.46 | 1.47 | enough cells to score |
| Rtn4rl1 | 0.72 | 1.65 | 1.59 | enough cells to score |
| Scara3 | 0.53 | 1.6 | 1.58 | enough cells to score |
| Dpp7 | – | 1.37 | 1.33 | fewer than 50 cells per well; well left out of scoring |
| Exd2 | 0.03 | 1.56 | 1.83 | enough cells to score |
| Zscan12 | – | 1.27 | 1.1 | fewer than 50 cells per well; well left out of scoring |
| Hoxd1 | 0.95 | 1.8 | 1.69 | enough cells to score |
| Hsd17b10 | 2.4 | 1.76 | 1.9 | enough cells to score |
| Smpdl3a | – | 1.41 | 0.864 | fewer than 50 cells per well; well left out of scoring |
